The supplement of paper PMC12067093, “Discovery and optimisation of a covalent ligand for TRIM25 and its application to targeted protein ubiquitination” (Chemical Science, 2025)
Some of the results follow.

Compound: CC1Cc2ccccc2N1C(=O)C1CCCN(C1)C(=O)CCl (mixture of isomers) [TRIM25 ligand 11 (diastereomer mixture)]
Test: probe-labelled cysteine peptide fold change vs DMSO (competition) (log2 fold change); higher = less target engagement (more negative = stronger competition)
Details: THP-1, incubation time: 4 h
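Also: competitive chemoproteomic profiling in live THP-1 cells with an iodoacetamide desthiobiotin (IA-DTB) probe, comparing probe-labelled peptide intensities in compound-treated cells against DMSO-treated controls.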

| Target | probe-labelled cysteine peptide fold change (10 µM) | probe-labelled cysteine peptide fold change (50 µM) |
| --- | --- | --- |
| MKI67_P46013_1251_IPCDSPQSDPVDTPTSTK (UniProt P46013) | -0.149 | -0.226 |
| MRC2_Q9UBG0_950_CLTALPYICK (UniProt Q9UBG0) | 0.0157 | 0.223 |
| MRPL3_P09001_78_LCPLKDEPWPIHPWEPGSFR (UniProt P09001) | -0.275 | 0.0373 |
| MITD1_Q8WV92_226_FSLGYCDFDLRPCHETTVDIFHK (UniProt Q8WV92) | 0.0671 | 0.022 |
| MRC2_Q9UBG0_1107_SCTEETHGFICQK (UniProt Q9UBG0) | 0.0976 | -0.115 |
| MRC2_Q9UBG0_1234_TTSCDTK (UniProt Q9UBG0) | 0.0668 | 0.0519 |
| MMADHC_Q9H3L0_52_AFSTAGSSGSDESHVAAAPPDICSR (UniProt Q9H3L0) | 0.127 | -0.237 |
| MICAL1_Q8TDZ2_727+747_CHTCEATLWPGGYEQHPGDGHFYCLQHLPQTDHK (UniProt Q8TDZ2) | 0.162 | -0.0657 |
| MOGS_Q13724_137_HTCEQGDGVGPYGWEFHDGLSFGR (UniProt Q13724) | -0.0183 | -0.127 |
| MPDU1_O75352_37_CYDQLFVQWDLLHVPCLK (UniProt O75352) | -0.0439 | 0.143 |
| MRPL27_Q9P0M9_88_CLYALEEGIVR (UniProt Q9P0M9) | -0.126 | 0.0351 |
| MRC2_Q9UBG0_201_YDNQWFHGCTSTGR (UniProt Q9UBG0) | -0.768 | -1.05 |
| MOCS3_O95396_179_RYDVVADCSDNVPTR (UniProt O95396) | 0.00844 | 0.00588 |
| MPI_P34949_309_FIDVPTLCEMLSYTPSSSK (UniProt P34949) | -0.12 | 0.0295 |
| MLKL_Q8NB16_437_RQQEPLGEDCPSELREIIDECR (UniProt Q8NB16) | -0.118 | -0.137 |
| MIPEP_Q99797_142_EAAEEACR (UniProt Q99797) | 0.115 | 0.0923 |
| MMS19_Q96T76_386_ACDSVTSNVLPLLLEQFHK (UniProt Q96T76) | 0.0546 | 0.0807 |
| MPHOSPH8_Q99549_99_GYTSDDDTWEPEIHLEDCK (UniProt Q99549) | 0.111 | 0.306 |
| MRPL18_Q9H0U6_125_NVVACESIGR (UniProt Q9H0U6) | 0.143 | -0.0322 |
| MKI67_P46013_3014_CMPAPEEIVEELPASK (UniProt P46013) | -0.0999 | -0.0562 |
| MGST3_O14880_56_YKVEYPIMYSTDPENGHIFNCIQR (UniProt O14880) | 0.0746 | -0.113 |

| Target | probe-labelled cysteine peptide fold change (10 µM) | probe-labelled cysteine peptide fold change (50 µM) |
| --- | --- | --- |
| MRPL42_Q9Y6G3_45_STYSPLPDDYNCNVELALTSDGR (UniProt Q9Y6G3) | -0.177 | -0.0419 |
| MKNK2_Q9HBH9_136_EVEMLYQCQGHR (UniProt Q9HBH9) | 0.495 | 0.556 |
| MKLN1_Q9UL63_82_THVCNLKK (UniProt Q9UL63) | -0.192 | -0.221 |
| MIF_P14174_57_ASVPDGFLSELTQQLAQATGKPPQYIAVHVVPDQLMAFGGSSEPCALCSLHSIGK (UniProt P14174) | -0.257 | -0.285 |
| MND1_Q9BWT6_147_DCDPQVVEEIR (UniProt Q9BWT6) | -0.111 | -0.171 |
| MICALL1_Q8N3F8_597_GSSGPQPAKPCSGATPTPLLLVGDR (UniProt Q8N3F8) | -0.0838 | -0.301 |
| MPP1_Q00013_179_DNLIPCK (UniProt Q00013) | 0.035 | 0.0583 |
| MLST8_Q9BVC4_107_WMYTGGEDCTAR (UniProt Q9BVC4) | 0.0109 | -0.0842 |
| MPC1_Q9Y5U8_83_NWLLFACHATNEVAQLIQGGR (UniProt Q9Y5U8) | -0.109 | -0.0149 |
| MRNIP_Q6NTE8_300_ATHPVTSGSERPCGK (UniProt Q6NTE8) | -0.0708 | -0.356 |
| MPST_P25325_65_HIPGAAFFDIDQCSDR (UniProt P25325) | 0.0233 | -0.09 |
| MICU1_Q9BPX6_275_SGLCSALTTYFFGADLK (UniProt Q9BPX6) | 0.0053 | -0.0317 |
| MKI67_P46013_2206_ELFQTPICTDKPTTHEK (UniProt P46013) | -0.0325 | -0.355 |
| MITD1_Q8WV92_226+233_FSLGYCDFDLRPCHETTVDIFHK (UniProt Q8WV92) | -0.348 | -0.181 |
| MRC2_Q9UBG0_481_DSLEDCVTIWGPEGR (UniProt Q9UBG0) | 0.507 | 0.405 |
| MORC3_Q14149_307_ITFGFNCR (UniProt Q14149) | -0.111 | 0.121 |
| MORC2_Q9Y6X9_502_AMEIPTTIQCDLCLK (UniProt Q9Y6X9) | 0.203 | 0.0321 |
| MLH1_P40692_77_LIQIQDNGTGIRKEDLDIVCER (UniProt P40692) | -0.198 | -0.0621 |
| MOB4_Q9Y3A3_78_QFCLELNGLAVK (UniProt Q9Y3A3) | -0.0422 | 0.0286 |
| MICAL3_Q7RTP6_1760_SCPSTPSSGATVDSGK (UniProt Q7RTP6) | -0.144 | -0.198 |
| MORC3_Q14149_413+416_RPDQTWVQCDACLK (UniProt Q14149) | -0.0543 | -0.0113 |

For convenience, some entries already given.

| Target | probe-labelled cysteine peptide fold change (10 µM) | probe-labelled cysteine peptide fold change (50 µM) |
| --- | --- | --- |
| MITD1_Q8WV92_226+233_FSLGYCDFDLRPCHETTVDIFHK (UniProt Q8WV92) | -0.348 | -0.181 |
| MRC2_Q9UBG0_481_DSLEDCVTIWGPEGR (UniProt Q9UBG0) | 0.507 | 0.405 |
| MORC3_Q14149_307_ITFGFNCR (UniProt Q14149) | -0.111 | 0.121 |

Additional records follow:

| Target | probe-labelled cysteine peptide fold change (10 µM) | probe-labelled cysteine peptide fold change (50 µM) |
| --- | --- | --- |
| MRPL37_Q9BZE1_366_VFHFLVFQLNTTDLDCNEGVK (UniProt Q9BZE1) | -0.305 | -0.0534 |
| MIB1_Q86YT6_462_RPDVDVNGQCAGHTAMQAASQNGHVDILK (UniProt Q86YT6) | 0.131 | -0.117 |
| MOB4_Q9Y3A3_51_ADCSNIDK (UniProt Q9Y3A3) | -0.0779 | 0.00201 |
| MPHOSPH10_O00566_27_ATGRPECFLTIQEGLASK (UniProt O00566) | 0.0116 | -0.0696 |
| MOV10_Q9HCE1_172_NGGTQSVTLTHLFPLCR (UniProt Q9HCE1) | 0.234 | 0.148 |
| MKI67_P46013_643_SQHDILQMICSK (UniProt P46013) | 0.104 | -0.404 |
| MOV10_Q9HCE1_553+564_AHILACAPSNSGADLLCQR (UniProt Q9HCE1) | 0.0454 | 0.0277 |
| MRC2_Q9UBG0_521_AGQLSQGAAEEDHGCRK (UniProt Q9UBG0) | 0.141 | 0.032 |
| MGST1_P10620_50_VFANPEDCVAFGKGENAKK (UniProt P10620) | -0.506 | -0.196 |
| MIER1_Q8N108_293_EELSVWTEEECRNFEQGLK (UniProt Q8N108) | -0.251 | -0.158 |
| MRI1_Q9BV20_199_LEHAFCTETRPYNQGAR (UniProt Q9BV20) | 0.00492 | -0.0616 |
| MGST1_P10620_50_VFANPEDCVAFGKGENAK (UniProt P10620) | -0.204 | -0.15 |
| MMS19_Q96T76_331_VEAEGLAALHSLTACLSR (UniProt Q96T76) | 0.0372 | 0.0651 |
| MILR1_Q7Z6M3_38_TNEFPSPCLDSK (UniProt Q7Z6M3) | -0.148 | -0.275 |
| MORC2_Q9Y6X9_387_DLDGMFIYNCSR (UniProt Q9Y6X9) | 0.019 | 0.069 |
| MRPL45_Q9BRJ2_168_LHTLVTEHCFPDMTWDIK (UniProt Q9BRJ2) | 0.296 | 0.136 |
| MORC3_Q14149_255_AYCSILYLK (UniProt Q14149) | 0.0806 | 0.181 |
| MOB4_Q9Y3A3_92_LQSECHPDTCTQMTATEQWIFLCAAHK (UniProt Q9Y3A3) | 0.0539 | -0.0547 |
| MNDA_P41218_61_KFQGVACLDK (UniProt P41218) | 0.0354 | -0.0884 |
| MRPL11_Q9Y3B7_50_GVSINQFCK (UniProt Q9Y3B7) | -0.157 | -0.264 |
| MMTAG2_Q9BU76_179_AEDQTESSCESHR (UniProt Q9BU76) | 0.0239 | -0.0101 |

| Target | probe-labelled cysteine peptide fold change (10 µM) | probe-labelled cysteine peptide fold change (50 µM) |
| --- | --- | --- |
| MICALL1_Q8N3F8_194_CSSTLLPGAYENGPEEGTFVCAEHCAR (UniProt Q8N3F8) | 0.154 | -0.0569 |
| MRPL32_Q9BYC8_110+113_NNIDVCPECGHLK (UniProt Q9BYC8) | -0.0513 | 0.0174 |
| MIF_P14174_60_ASVPDGFLSELTQQLAQATGKPPQYIAVHVVPDQLMAFGGSSEPCALCSLHSIGK (UniProt P14174) | -0.155 | -0.14 |
| MKRN1_Q9UHC7_239_YGENCVYLHGDSCDMCGLQVLHPMDAAQR (UniProt Q9UHC7) | 0.113 | -0.171 |
| MIS18A_Q9NYP9_107_RPLGDSLSWVASQEDTNCILLR (UniProt Q9NYP9) | -0.0384 | -0.0554 |
| MON1B_Q7L1V2_297_NVLAECR (UniProt Q7L1V2) | -0.0116 | 0.0726 |
| MKI67_P46013_715_KPVGEVHSQFSTGHANSPCTIIIGK (UniProt P46013) | 0.0395 | -0.168 |
| MGST1_P10620_50_KVFANPEDCVAFGK (UniProt P10620) | 0.00983 | 0.0793 |
| MPHOSPH9_Q99550_647_CGQLDSALHEATSR (UniProt Q99550) | -0.0776 | -0.051 |
| MKRN1_Q9UHC7_69_YFMHGVCK (UniProt Q9UHC7) | -0.00165 | 0.0178 |
| MKI67_P46013_261_ENVLQYCR (UniProt P46013) | -0.117 | -0.129 |
| MILR1_Q7Z6M3_110_AQVTSCSK (UniProt Q7Z6M3) | 0.00658 | -0.0857 |
| MNAT1_P51948_6_MDDQGCPR (UniProt P51948) | -0.0866 | 0.476 |
| MPP1_Q00013_242_VASMAQSAPSEAPSCSPFGKK (UniProt Q00013) | -0.234 | -0.385 |
| MMACHC_Q9Y4U1_82_MLTDPVDQCVAYHLGR (UniProt Q9Y4U1) | 0.049 | 0.123 |
| MICAL3_Q7RTP6_25_FVQATTCK (UniProt Q7RTP6) | 0.129 | 0.225 |
| MKNK1_Q9BUB5_231_ICDFDLGSGMK (UniProt Q9BUB5) | -0.167 | -0.179 |
| MLLT10_P55197_140_TCYICDEQGR (UniProt P55197) | 0.277 | 0.186 |
| MON2_Q7Z3U7_1033_LGELCVDPR (UniProt Q7Z3U7) | -4.04e-05 | 0.00112 |
| MIOS_Q9NXC5_854+856_DHAECPVSACTCK (UniProt Q9NXC5) | 0.00797 | 0.0234 |
